Measurements published in paper PMC10729500.
No constants are given. Whether binding was seen depends on the method and setting. Binding seen in cells or lysates may run through a third protein. Some binding calls cover weakened binding; strength is not graded here.

Sequences of proteins named here, by UniProt entry; tags and fusion partners are left off. A change or cut given only in a name is not applied to a line headed by its entry. A line that says so, or that is headed by a name, gives the form on record, which may keep a tag or linker.
V5-DNAJB6b (O75190, form named): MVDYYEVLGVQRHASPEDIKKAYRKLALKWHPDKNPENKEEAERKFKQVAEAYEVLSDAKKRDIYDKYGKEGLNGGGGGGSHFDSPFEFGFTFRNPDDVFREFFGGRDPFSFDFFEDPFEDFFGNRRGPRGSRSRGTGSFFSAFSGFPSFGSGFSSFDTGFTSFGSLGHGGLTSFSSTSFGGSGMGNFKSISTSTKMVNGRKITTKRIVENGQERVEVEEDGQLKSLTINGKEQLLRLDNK
UniProt P11142: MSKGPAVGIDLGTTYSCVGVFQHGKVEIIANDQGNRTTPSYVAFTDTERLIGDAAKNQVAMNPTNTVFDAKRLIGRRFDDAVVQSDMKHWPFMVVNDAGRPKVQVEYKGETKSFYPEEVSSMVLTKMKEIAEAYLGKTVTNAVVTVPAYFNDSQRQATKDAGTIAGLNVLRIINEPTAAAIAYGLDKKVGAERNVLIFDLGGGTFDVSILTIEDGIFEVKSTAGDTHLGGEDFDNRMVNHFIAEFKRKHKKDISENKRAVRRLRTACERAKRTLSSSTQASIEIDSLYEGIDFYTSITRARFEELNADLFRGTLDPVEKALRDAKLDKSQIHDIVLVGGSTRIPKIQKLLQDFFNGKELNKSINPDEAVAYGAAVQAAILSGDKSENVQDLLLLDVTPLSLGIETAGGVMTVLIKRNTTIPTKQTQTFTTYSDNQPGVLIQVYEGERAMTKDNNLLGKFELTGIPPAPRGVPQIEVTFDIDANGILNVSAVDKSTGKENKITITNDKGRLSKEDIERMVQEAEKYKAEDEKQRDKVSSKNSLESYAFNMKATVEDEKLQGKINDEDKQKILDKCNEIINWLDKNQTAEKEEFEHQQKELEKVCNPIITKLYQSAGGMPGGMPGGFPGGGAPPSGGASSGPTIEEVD

Target: V5-DNAJB6b (human) (UniProt O75190)
Test: co-IP; SH-SY5Y cells co-expressing tau P301L and V5-DNAJB6a, V5-DNAJB6b or V5-DNAJB6b H31Q for 48 h; precipitated with anti-V5 antibody (2 ug/ml lysate, overnight, 4 C) and protein G magnetic beads; IP buffer 100 mM NaCl, 0.5% Triton X-100, 1 mM EDTA, 50 mM Tris-HCl pH 7.5; immunoblot

Substance: HSPA8 (from UniProt P11142 1-646)
- binding: binds
